Experimental data as given in paper PMC10401710.

Amino acid sequences for entries named in this document (tags omitted). Residues count along the entry.
UniProt P02769, 25-607: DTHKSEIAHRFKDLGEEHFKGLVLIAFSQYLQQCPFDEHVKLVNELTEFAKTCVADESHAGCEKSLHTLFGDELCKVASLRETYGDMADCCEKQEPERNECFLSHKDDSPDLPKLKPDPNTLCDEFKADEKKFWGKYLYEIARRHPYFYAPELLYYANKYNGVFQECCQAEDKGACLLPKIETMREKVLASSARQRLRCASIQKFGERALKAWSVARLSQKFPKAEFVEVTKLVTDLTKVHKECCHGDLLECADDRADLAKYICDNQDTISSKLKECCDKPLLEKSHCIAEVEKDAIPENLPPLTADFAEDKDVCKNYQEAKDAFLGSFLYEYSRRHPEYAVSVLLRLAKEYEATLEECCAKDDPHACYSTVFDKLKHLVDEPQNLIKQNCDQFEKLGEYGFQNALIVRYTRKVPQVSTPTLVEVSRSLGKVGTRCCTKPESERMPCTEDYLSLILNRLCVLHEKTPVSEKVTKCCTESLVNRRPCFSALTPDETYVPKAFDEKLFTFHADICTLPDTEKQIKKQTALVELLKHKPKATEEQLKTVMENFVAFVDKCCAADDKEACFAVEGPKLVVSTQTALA

Experiments:
[1] = biological target: Bovine serum albumin (bovine) (UniProt P02769); assay: covalent biotin transfer, SA-HRP blot; conditions: off-target labeling only at or above 500 nM aptamer, 1 uM BSA; T27 replaced by 5-octadiynyl-dU, clicked to azide-tethered N-acyl sulfonamide biotin electrophile 1; DPBS with 5 mM MgCl2, 4.5 g/L glucose, pH 7.4, 37 C, 1 h (cells: plus 0.1 mg/mL yeast tRNA); read-out is proximity-driven covalent labeling, no equilibrium Kd measured; commercial protein; label: transferable biotin; folded or branched DNA
[2] = biological target: PTK7 (endogenous) (human (Jurkat, HepG2 cells)) (UniProt Q13308); assay: covalent biotin transfer on cells, SA-PE flow cytometry; conditions: Jurkat and HepG2, >10-fold MFI over PTK7-negative HEK293T; T27 replaced by 5-octadiynyl-dU, clicked to azide-tethered N-acyl sulfonamide biotin electrophile 1; DPBS with 5 mM MgCl2, 4.5 g/L glucose, pH 7.4, 37 C, 1 h (cells: plus 0.1 mg/mL yeast tRNA); read-out is proximity-driven covalent labeling, no equilibrium Kd measured; protein on the cell surface; label: transferable biotin; folded or branched DNA
PTK7 = PTK7 (UniProt Q13308); assay: covalent biotin transfer on cells, streptavidin pulldown and anti-PTK7 immunoblot; conditions: 1 h; T27 replaced by 5-octadiynyl-dU, clicked to azide-tethered N-acyl sulfonamide biotin electrophile 1; DPBS with 5 mM MgCl2, 4.5 g/L glucose, pH 7.4, 37 C, 1 h (cells: plus 0.1 mg/mL yeast tRNA); read-out is proximity-driven covalent labeling, no equilibrium Kd measured; protein on the cell surface; label: transferable biotin; folded or branched DNA
[3] = biological target: T1, PTK7 (recombinant, R&D Biosystems NC2081082) (UniProt Q13308); assay: covalent biotin transfer, SA-HRP blot; conditions: among highest labeling efficiencies, 5 mM MgCl2, clicked to azide-tethered N-acyl sulfonamide biotin electrophile 1, DPBS with 5 mM MgCl2, 4.5 g/L glucose, pH 7.4, 37 C, 1 h (cells: plus 0.1 mg/mL yeast tRNA), read-out is proximity-driven covalent labeling, no equilibrium Kd measured, commercial protein, residues 31-703, label: transferable biotin, folded or branched DNA
T1 sequence (looked up): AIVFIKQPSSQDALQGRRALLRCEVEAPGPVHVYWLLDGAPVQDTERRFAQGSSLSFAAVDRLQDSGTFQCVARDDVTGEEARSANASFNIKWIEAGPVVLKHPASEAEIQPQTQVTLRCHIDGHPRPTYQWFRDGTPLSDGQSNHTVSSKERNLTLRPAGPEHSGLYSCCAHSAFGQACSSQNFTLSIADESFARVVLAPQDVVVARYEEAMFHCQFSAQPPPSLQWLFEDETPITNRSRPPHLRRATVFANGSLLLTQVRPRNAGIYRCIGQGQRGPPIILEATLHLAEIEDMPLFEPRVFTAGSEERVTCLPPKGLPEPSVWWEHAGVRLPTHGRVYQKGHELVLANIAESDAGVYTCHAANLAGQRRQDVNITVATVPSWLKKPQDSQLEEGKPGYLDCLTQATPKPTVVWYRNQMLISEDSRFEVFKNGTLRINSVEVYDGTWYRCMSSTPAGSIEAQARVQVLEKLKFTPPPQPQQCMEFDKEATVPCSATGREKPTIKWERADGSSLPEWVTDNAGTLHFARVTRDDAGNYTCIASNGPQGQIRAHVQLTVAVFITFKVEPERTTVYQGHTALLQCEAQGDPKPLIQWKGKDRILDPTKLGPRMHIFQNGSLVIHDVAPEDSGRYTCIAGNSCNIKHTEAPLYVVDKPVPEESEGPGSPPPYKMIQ

ATCTAACTGCTGCGCCGCCGGGAAAATACTGTACGGTTAGA [sgc8c(27)-1]
binding result [1]: binds more weakly
binding result [2]: binds
binding result (PTK7): binds

ATCTAACTGCTGCGCCGCCGGGAAAATACTGTACGGTTAGA [sgc8c(8)-1]
binding result ([3]; T8 replaced by 5-octadiynyl-dU): binds

ATCTAACTGCTGCGCCGCCGGGAAAATACTGTACGGTTAGA [sgc8c(30)-1]
binding result ([3]; T30 replaced by 5-octadiynyl-dU): binds

For some assays here: Where a protein sequence is shown, tags need not be part of it. For some assays here: For at least one entry, the source does not settle the construct or the ends of the probe. For some assays here: Weaker means in comparison with the reference protein, sequence or condition of that experiment. For some assays here: Results from cells or extracts need not show a direct contact.
